Some of these results come from one statement about several compounds together. Some ranges recur; such a range may be that of the whole group of compounds. Bridge positions count the residues as written; N and C are the ends. Peptide text beside a SMILES is read from it.
What was measured:
E. coli ML35 [1] = assay: Membrane permeabilization assay (ONPG hydrolysis); format: cell-based, Escherichia coli; conditions: rates at 1 μg/ml concentration of each peptide
Description: For the membrane permeabilization assay, the permeabilization of bacterial cytoplasmic membranes was determined by measuring hydrolysis of o-nitrophenyl-β-D-galactcpyranoside (ONPG) in E. coli ML35 (Sitaram et al., FEBS Lett. 303:265-268 (1992); Lehrer et al.,. J. Immunol. Methods 108:153-158 (1988)). Peptides dissolved in 5 μl of 0.01% acetic acid were two-fold serially diluted with 10 mM PIPES, pH 7.4, containing 3 mM ONPG, to final peptide concentrations of 0-8.0 μg/ml. Log-phase bacteria, prepared in PIPES buffer as described for the microbicidal assay (see Example I), were added to 1×10^6 CFU/ml final density in a final volume of 90 μl. ONPG hydrolysis was measured at 405 nm for 60 min using a SpectraMAX 190 plate reader and SOFTmaxPRO 3.1 (Molecular Devices Corp., CA). […]

[2] = test system: S. aureus 502a, E. coli ML35, and C. albicans 16820; assay: Cell-suspension microbicidal assay, statements across the test organisms (lowest MMC, overall ranges); format: cell-based; conditions: against all three test organisms
Description: (§1) To test microbicidal activities, the activities of each peptide against S. aureus 502a, E. coli ML35, and C. albicans 16820 were assessed essentially as described in Example I with modifications to allow for simultaneous analysis of all twenty peptides. Briefly, two-fold serial dilutions of each peptide (in 0.01% acetic acid 0.062-8.0 μg/ml final concentrations) were mixed with 10 mM PIPES, pH 7.4, containing 5 mM glucose in sterile polystyrene 96-well plates (Corning, N.Y.). Aliquots of log-phase bacteria or yeast were added to a 2×10^6 CFU/ml final density as determined by A620. After 2 h incubation at 37° C., 15 μl of the incubation mixture was removed and serially diluted ten-fold from 1:10 to 1:10^6 in trypticase soy broth (bacteria) or Sabaraud dextrose broth (C. albicans). The diluted cell suspensions were grown 24-48 h at 37° C. until cell pellets were visible. Microbicidal activity was determined as absence of growth and was correlated to CFU/ml in control experiments where activity was determined in parallel by colony counting (see Example I). Absence of growth at the 1:10^3 dilution is equivalent to a 3-log reduction in microbial viability.
The microbicidal activities of each peptide against E. coli ML35, S. aureus 502a, and C. albicans 16820 were determined with cell-suspension microbicidal assays in 96-well plates (see Example II). Briefly, log-phase cells (2×10^6 CFU/ml final) were incubated with increasing concentrations of peptides (0-8 μg/ml final) in 50 μl of 10 mM PIPES, 5 mM glucose, pH 7.4, for 2 h at 37° C. […] Microbicidal activities (confirmed in control experiments as described in Example II) were determined as the absence of a cell pellet in the various dilutions. […]
A selectivity index (SI=H/M) was calculated as a ratio of a peptide concentration (μg/ml) that causes 3% hemolysis (H) obtained from a dose-dependent hemolysis plot over 0.3 to 3 μg/ml of each peptide in PBS and the lowest MMC value (M) for any of the three test microorganisms (see Example II; Table 2).

E. coli ML35 [3] = assay: Cell-suspension microbicidal assay (MMC); format: cell-based, Escherichia coli; conditions: lowest concentration that reduced cell viability by 99.9%; 10 mM PIPES, 5 mM glucose, pH 7.4; 2 h 37° C.
Description: as §1, with “The diluted cell suspensions were grown 24-48 h at 37° C. until cell pellets were visible.” left out, “Absence of growth at the 1:10^3 dilution is equivalent to a 3-log reduction in microbial viability.” left out
The microbicidal activities of each peptide against E. coli ML35, S. aureus 502a, and C. albicans 16820 were determined with cell-suspension microbicidal assays in 96-well plates (see Example II). […] Microbicidal activities (confirmed in control experiments as described in Example II) were determined as the absence of a cell pellet in the various dilutions. […]

For `CC(C)C[C@H](NC(=O)[C@@H]1CSSC[C@H](NC(=O)[C@H](CCCNC(=N)N)NC(=O)[C@H](C)NC(=O)[C@@H](NC(=O)CNC(=O)[C@@H](N)CCCNC(=N)N)C(C)C)C(=O)N[C@@H](CC(C)C)C(=O)N[C@H]2CSSC[C@H](NC(=O)[C@H](C(C)C)NC(=O)CNC(=O)[C@H](CCCNC(=N)N)NC(=O)[C@H](CCCNC(=N)N)NC2=O)C(=O)N[C@@H](CCCNC(=N)N)C(=O)N1)C(=O)N[C@@H](C)C(=O)N[C@@H](CCCNC(=N)N)C(N)=O` [5:3 aRTD-3-NH] (H-RGVARCLCRRGVCRCLAR-NH2; disulfide 6-15, 8-13; N-terminus assumed), the ONPG hydrolysis (E. coli ML35 [1]) was 2.4-5.8 (A405/sec) · 10^−5.

In the case of `CC(C)C[C@H](NC(=O)[C@H](CCCNC(=N)N)NC(=O)CNC(=O)CNC(=O)[C@@H](N)CCCNC(=N)N)C(=O)N[C@H]1CSSC[C@@H](C(=O)N[C@H](C(=O)NCC(=O)N[C@@H](CCCNC(=N)N)C(N)=O)C(C)C)NC(=O)[C@H](C(C)C)NC(=O)[C@@H]2CSSC[C@H](NC(=O)[C@H](Cc3ccc(O)cc3)NC1=O)C(=O)N[C@@H](CCCNC(=N)N)C(=O)N[C@@H](CCCNC(=N)N)C(=O)N[C@@H](CCCNC(=N)N)C(=O)N[C@@H](Cc1ccccc1)C(=O)N2` [PG-1, reference compound], the ONPG hydrolysis (E. coli ML35 [1]) is reported as 9-12 (A405/sec) · 10^−5 and the microbicidal concentration [2] is reported as 0.2 to 1.1 µM.

With `CC[C@H](C)[C@@H]1NC(=O)[C@@H]2CSSC[C@H](NC(=O)[C@H](CCCNC(=N)N)NC(=O)[C@@H](NC(=O)[C@H](Cc3ccccc3)NC(=O)CN)CSSC[C@@H](C(=O)N[C@H](C(=O)N[C@@H](CCCNC(=N)N)C(=O)O)[C@@H](C)O)NC1=O)C(=O)N[C@@H]([C@@H](C)CC)C(=O)N[C@H]1CSSC[C@H](NC(=O)[C@H](Cc3ccccc3)NC(=O)CNC(=O)[C@H](CCCNC(=N)N)NC(=O)[C@H]([C@@H](C)O)NC1=O)C(=O)N[C@@H](CCCNC(=N)N)C(=O)N2` [aRTD-2-OH] (H-GFCRCICTRGFCRCICTR-OH; disulfide 3-16, 5-14, 7-12; N-terminus assumed) the ONPG hydrolysis (E. coli ML35 [1]) was 2.4-5.8 (A405/sec) · 10^−5 and the “MMC, E. coli” value (E. coli ML35 [3]) was at least 3 µg/mL.

For `CC[C@H](C)[C@@H]1NC(=O)[C@@H]2CSSC[C@H](NC(=O)[C@H](CCCNC(=N)N)NC(=O)[C@@H]3CSSC[C@H](NC1=O)C(=O)N[C@@H]([C@@H](C)O)C(=O)N[C@@H](CCCNC(=N)N)C(=O)NCC(=O)N[C@@H](Cc1ccccc1)C(=O)N3)C(=O)N[C@@H]([C@@H](C)CC)C(=O)N[C@H]1CSSC[C@H](NC(=O)[C@H](Cc3ccccc3)NC(=O)CNC(=O)[C@H](CCCNC(=N)N)NC(=O)[C@H]([C@@H](C)O)NC1=O)C(=O)N[C@@H](CCCNC(=N)N)C(=O)N2` [RTD-2] (cyclo(CICTRGFCRCICTRGFCR); disulfide 1-10, 3-8, 12-17), the microbicidal concentration [2] was 0.2 to 1.1 µM.

In the case of `CC(C)C[C@@H]1NC(=O)[C@@H]2CSSC[C@H](NC(=O)[C@H](CCCNC(=N)N)NC(=O)[C@@H]3CSSC[C@H](NC1=O)C(=O)N[C@@H](CCCNC(=N)N)C(=O)N[C@@H](CCCNC(=N)N)C(=O)NCC(=O)N[C@@H](C(C)C)C(=O)N3)C(=O)N[C@@H](CC(C)C)C(=O)N[C@H]1CSSC[C@H](NC(=O)[C@H](C(C)C)NC(=O)CNC(=O)[C@H](CCCNC(=N)N)NC(=O)[C@H](CCCNC(=N)N)NC1=O)C(=O)N[C@@H](CCCNC(=N)N)C(=O)N2` [RTD-3] (cyclo(CLCRRGVCRCLCRRGVCR); disulfide 1-10, 3-8, 12-17), the ONPG hydrolysis (E. coli ML35 [1]) is reported as 9-12 (A405/sec) · 10^−5, the “MMC, E. coli” value (E. coli ML35 [3]) is reported as 1 to 2 µg/mL and the microbicidal concentration [2] is reported as 0.2 to 1.1 µM.
